According to the supplement of paper PMC3334620:
The full ranking holds about 33,000 sequences; the median of “E-score (-0.5 to 0.5)” is about -0.015, and the highest 2% start at about 0.3. Some of the results follow.

target: T1, Abf1 (UniProt P14164); test: PBM E-score (8-mer binding enrichment) (E-score (-0.5 to 0.5)); higher = stronger / more preferred TF binding; details: protein concentration: 200 nM; construct: GST-full length
T1 sequence: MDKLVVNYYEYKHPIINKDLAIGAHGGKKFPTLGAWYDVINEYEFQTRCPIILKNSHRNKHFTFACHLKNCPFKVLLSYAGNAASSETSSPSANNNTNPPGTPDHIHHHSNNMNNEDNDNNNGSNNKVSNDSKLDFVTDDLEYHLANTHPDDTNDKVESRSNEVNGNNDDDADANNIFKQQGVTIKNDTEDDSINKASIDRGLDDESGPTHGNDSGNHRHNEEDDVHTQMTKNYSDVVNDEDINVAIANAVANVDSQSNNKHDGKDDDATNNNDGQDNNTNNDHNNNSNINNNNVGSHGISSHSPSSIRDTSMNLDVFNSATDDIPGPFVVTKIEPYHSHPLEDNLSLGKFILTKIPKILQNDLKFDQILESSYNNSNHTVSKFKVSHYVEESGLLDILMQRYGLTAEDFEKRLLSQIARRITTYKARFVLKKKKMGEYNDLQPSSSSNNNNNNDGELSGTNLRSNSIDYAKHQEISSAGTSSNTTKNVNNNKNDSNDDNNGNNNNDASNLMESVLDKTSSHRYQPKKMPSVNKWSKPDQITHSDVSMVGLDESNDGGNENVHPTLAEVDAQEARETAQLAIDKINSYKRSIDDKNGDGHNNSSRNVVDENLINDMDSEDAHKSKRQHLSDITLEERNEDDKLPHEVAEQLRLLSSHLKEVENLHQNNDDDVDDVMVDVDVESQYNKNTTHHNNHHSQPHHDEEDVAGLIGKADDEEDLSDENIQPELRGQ
Summary of the method: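 E-scores (a modified Wilcoxon-Mann-Whitney statistic) were assigned by the Universal PBM Analysis Suite to every ungapped eight-base word pooled with its reverse complement. The input came from universal all-10-mer Agilent arrays made double-stranded by primer extension and probed with GST-tagged yeast transcription factors at about 100-200 nM. Fluorescent anti-GST detected bound protein, and masliner normalised the scans.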

| Sequence | PBM E-score |
| --- | --- |
| CTTGCCGC | -0.26 |
| GAAGCTTC | -0.121 |
| AAAAATGC | 0.12 |
| GGTTAGCA | -0.18 |
| GAATTCAA | -0.0191 |
| CCGAGGTA | -0.0623 |
| GGCATCCA | -0.117 |
| GTGGAGCA | 0.00893 |
| AGCCTTAA | -0.113 |
| AGGAGATC | 0.00894 |
| AACAAGTG | 0.018 |
| AAGGGTAC | 0.0349 |
| AAGCATTG | -0.0436 |
| GAACGGAC | -0.0561 |
| AGGAAGCC | -0.326 |
| CGACCCAC | -0.117 |
| AATCTTCA | 0.166 |
| CAGCACTA | 0.189 |
| AGTATTCC | 0.018 |
| GCTCCGAA | -0.07 |
| ACACTGAT | -0.0432 |
| GTGTTTGA | 0.0823 |
| AAGTATTG | 0.0723 |
| GGAGCCGA | -0.204 |
| CCCAGTTC | -0.0526 |

| Sequence | PBM E-score |
| --- | --- |
| TATTTGCA | 0.128 |
| TGTCCACA | 0.00735 |
| ACTATTTA | 0.215 |
| AATCCGCG | 0.0253 |
| CGATCGAA | 0.0567 |
| ATGGCGCA | -0.0293 |
| AGCCGGGG | -0.337 |
| CCTACCCG | -0.194 |
| GAGTAGTA | 0.0591 |
| CCAGTACC | -0.00204 |
| CACATAGC | -0.0461 |
| CAATGGCA | -0.0412 |
| AGCTATGC | -0.237 |
| AACTATCC | -0.035 |
| AATTCTGT | -0.144 |
| GCCGAACC | -0.0821 |
| GGTGGGAC | -0.143 |
| AACAATTA | 0.17 |
| CATCTGAC | -0.152 |
| CTACTTAC | 0.0358 |
| CTACGCAC | 0.121 |
| ATTACACC | -0.0602 |
| CGTTACAC | 0.298 |
| GCGTTTCA | -0.0687 |
| CCCTTGGA | 0.0783 |

| Sequence | PBM E-score |
| --- | --- |
| CCAGCGTA | -0.149 |
| ACTGAAAG | 0.0169 |
| GGTGTCCA | 0.0417 |
| AAGCTGCG | -0.177 |
| CGGGCATA | -0.00822 |
| CGTTTGGA | 0.0402 |
| CTTTGGCC | -0.0649 |
| TAACCGGA | -0.167 |
| CACTACAC | 0.185 |
| GTGGTTCA | 0.117 |
| ACCTTGAT | 0.102 |
| TGATGTAA | 0.145 |
| AATGAGAC | -0.136 |
| TCAACCAA | -0.0646 |
| GTTAGAAC | 0.186 |
| AGCTCGGG | 0.00146 |
| ATTACGTA | 0.372 |
| GAGTAAAC | -0.0509 |
| AGTACCAG | -0.0715 |
| ACCTCTGC | -0.0641 |
| GGACGTGA | 0.0158 |
| AGTCTGTG | -0.122 |
| AATGCTTC | 0.124 |
| GCGATGTA | 0.095 |
| AATCAGTA | 0.0404 |

| Sequence | PBM E-score |
| --- | --- |
| CTTTTTTA | -0.023 |
| CAACATAG | -0.0991 |
| CAAACCTA | 0.0828 |
| AGCATTCC | -0.0268 |
| ACTGTGAG | -0.163 |
| GCTTACCA | 0.113 |
| CTATCACA | 0.199 |
| TGATATCA | 0.34 |
| ATTATGCG | 0.303 |
| ATAGGATC | 0.0238 |
| TTACCGAA | 0.0303 |
| ACCTACTA | 0.0118 |
| ACCGCCCA | -0.0567 |
| AAGAGACA | 0.0212 |
| AACAGGGC | -0.135 |
| GCGTCTCA | -0.0766 |
| GCGAACAA | 0.0737 |
| CCGGGGTA | -0.201 |
| CCAGGGGG | -0.287 |
| AATGTGGG | -0.151 |
| ACTGGCCC | -0.0406 |
| AACCAAAG | 0.0516 |
| CCACGGCC | 0.0158 |
| CTCAAATC | 0.0736 |
| ATTCTGGC | -0.0296 |

| Sequence | PBM E-score |
| --- | --- |
| AAAGAAAC | 0.114 |
| GATCCAGC | -0.228 |
| AAAAATCC | -0.0226 |
| CAGCGAGA | -0.194 |
| CCACGTAC | 0.186 |
| ATGAGCAC | -0.0749 |
| ACGTGAAG | 0.0955 |
| CGGGGAAG | -0.248 |
| AGCTATAA | 0.0303 |
| CTAAAGAC | -0.137 |
| ATCGTTCA | 0.286 |
| AGATATAA | 0.222 |
| CTTTTTCA | 0.0411 |
| CCAAGACC | -0.253 |
| CCCTAAGA | -0.119 |
| ACTGATTG | -0.0923 |
| AGGGAACG | 0.106 |
| AACCTATT | -0.155 |
| CCATGATC | 0.0339 |
| ACCTGGCG | -0.112 |
| TCAGTGAA | -0.0379 |
| ATCCACCC | 0.00764 |
| GCTAGGGA | -0.235 |
| CAACTGCC | 0.00299 |
| GGCCTAAC | 0.00251 |

| Sequence | PBM E-score |
| --- | --- |
| AGCCGCCG | -0.0745 |
| AACACCTG | -0.0199 |
| ATACTGAA | 0.106 |
| AAGGAACG | 0.0004 |
| ATCATACG | 0.315 |
| AGAACATA | 0.0935 |
| ACTTCAGG | -0.0164 |
| CATACTGG | 0.0239 |
| GTTCTGTA | -0.0186 |
| ATACGAGC | 0.277 |
| CATGCTGA | -0.0653 |
| CAACGCCA | -0.171 |
| TTCCCAAA | 0.0671 |
| ACGTGCGC | 0.0786 |
| TAAAAAGA | -0.00289 |
| GCCCTATA | 0.0326 |
| ATCCGGCC | -0.0222 |
| CTTGACAC | -0.0997 |
| ATGTGTAA | 0.0133 |
| CAGTGCGC | -0.282 |
| GAACATCA | 0.246 |
| GCTCGTCC | 0.0926 |
| ACGACGAC | 0.292 |
| GAGTTAAC | -0.0338 |
| CCAGGCGC | -0.195 |

Look-ups from above:
Entry for ACTTCAGG under PBM E-score: -0.0164
Entry for GAACATCA under PBM E-score: 0.246
Entry for GCTCGTCC under PBM E-score: 0.0926
Entry for CATACTGG under PBM E-score: 0.0239
Entry for ATGTGTAA under PBM E-score: 0.0133

Remaining list, next part.

| Sequence | PBM E-score |
| --- | --- |
| CGTGATTA | 0.248 |
| AGGCTATG | -0.0835 |
| CTGGAACC | -0.144 |
| AACCAGCT | 0.192 |
| AGTCAGAT | 0.0195 |
| CTTAACGC | -0.101 |
| ACCCCAGG | -0.3 |
| CCAATGGA | -0.107 |
| CAGCTGGC | -0.209 |
| GAAGCATC | -0.0613 |
| CGTTGACC | 0.0177 |
| ACCGCAGA | -0.134 |
| GCTTATAA | 0.0527 |
| AGATCAAT | 0.12 |
| AGGTCTAT | -0.0302 |
| TCTCGAGA | 0.302 |
| GATCTAGC | 0.0373 |
| CCGATAAG | -0.0762 |
| AATTTGAA | 0.0915 |
| AGCCGAGG | -0.146 |
| CTATATGC | 0.00873 |
| CGACGCTA | 0.137 |
| AACATACT | 0.19 |
| TAACACCA | 0.0537 |
| CATAAGCA | -0.13 |

| Sequence | PBM E-score |
| --- | --- |
| ACATGTTA | 0.112 |
| CTAGTATC | 0.0503 |
| GATTGAAA | 0.0603 |
| ACATTATG | 0.182 |
| AGGTGTGC | -0.199 |
| AGCCTTAG | -0.217 |
| CCCGTGCA | 0.0856 |
| CCTCAGAG | -0.357 |
| GTCCCAGA | -0.0431 |
| CGAACATC | 0.12 |
| AGTCTGGC | -0.191 |
| TACGCGCA | 0.0188 |
| ACGACAGT | 0.236 |
| AATACTCA | 0.162 |
| ATAGGGGG | -0.334 |
| ATAGTGGC | -0.018 |
| AAGGCTGG | -0.0746 |
| CCCAAAAG | -0.135 |
| CTCACGAC | 0.199 |
| AGTGGAGA | -0.00617 |
| AGTAGAGA | -0.103 |
| CTAGGACC | -0.307 |
| CTCGGTAC | 0.0166 |
| TACCGGAA | -0.0691 |
| CCCGACAA | 0.0221 |

An excerpt of these results, with bars between the fields:
Sequence | PBM E-score
GTCCCAGA | -0.0431
CGAACATC | 0.12

(list continues)

| Sequence | PBM E-score |
| --- | --- |
| CCCGCGTA | -0.167 |
| AGTATAAA | 0.252 |
| CGTCTGTA | 0.139 |
| ACAATGGG | -0.045 |
| GCGCTCAC | -0.0532 |
| AGGATGAA | -0.0322 |
| ATGGGCAC | 0.0779 |
| GAGCGGGC | -0.188 |
| AGACAATC | 0.11 |
| AAAGCTCA | -0.0175 |
| GAAACCCA | 0.086 |
| CTTAACAA | 0.0437 |
| AGTCCCGG | -0.367 |
| CACGTTAA | -0.0533 |
| AGCTGCGG | -0.329 |
| GCGCTATA | -0.0492 |
| ATCTGTTG | -0.16 |
| TGAGACCA | -0.107 |
| CTGCACGC | -0.24 |
